The values below come from patent publication US20240075161A1.

No constants are given. Whether binding was seen depends on the method and setting. Some binding calls cover weakened binding; strength is not graded here. Where a sequence is shown, tags or fusion partners need not be part of it.

For assay [1], the target named is T1, CD206 on CD206-positive M2 macrophages (mouse) (mouse) (UniProt Q61830).
T1 sequence (looked up): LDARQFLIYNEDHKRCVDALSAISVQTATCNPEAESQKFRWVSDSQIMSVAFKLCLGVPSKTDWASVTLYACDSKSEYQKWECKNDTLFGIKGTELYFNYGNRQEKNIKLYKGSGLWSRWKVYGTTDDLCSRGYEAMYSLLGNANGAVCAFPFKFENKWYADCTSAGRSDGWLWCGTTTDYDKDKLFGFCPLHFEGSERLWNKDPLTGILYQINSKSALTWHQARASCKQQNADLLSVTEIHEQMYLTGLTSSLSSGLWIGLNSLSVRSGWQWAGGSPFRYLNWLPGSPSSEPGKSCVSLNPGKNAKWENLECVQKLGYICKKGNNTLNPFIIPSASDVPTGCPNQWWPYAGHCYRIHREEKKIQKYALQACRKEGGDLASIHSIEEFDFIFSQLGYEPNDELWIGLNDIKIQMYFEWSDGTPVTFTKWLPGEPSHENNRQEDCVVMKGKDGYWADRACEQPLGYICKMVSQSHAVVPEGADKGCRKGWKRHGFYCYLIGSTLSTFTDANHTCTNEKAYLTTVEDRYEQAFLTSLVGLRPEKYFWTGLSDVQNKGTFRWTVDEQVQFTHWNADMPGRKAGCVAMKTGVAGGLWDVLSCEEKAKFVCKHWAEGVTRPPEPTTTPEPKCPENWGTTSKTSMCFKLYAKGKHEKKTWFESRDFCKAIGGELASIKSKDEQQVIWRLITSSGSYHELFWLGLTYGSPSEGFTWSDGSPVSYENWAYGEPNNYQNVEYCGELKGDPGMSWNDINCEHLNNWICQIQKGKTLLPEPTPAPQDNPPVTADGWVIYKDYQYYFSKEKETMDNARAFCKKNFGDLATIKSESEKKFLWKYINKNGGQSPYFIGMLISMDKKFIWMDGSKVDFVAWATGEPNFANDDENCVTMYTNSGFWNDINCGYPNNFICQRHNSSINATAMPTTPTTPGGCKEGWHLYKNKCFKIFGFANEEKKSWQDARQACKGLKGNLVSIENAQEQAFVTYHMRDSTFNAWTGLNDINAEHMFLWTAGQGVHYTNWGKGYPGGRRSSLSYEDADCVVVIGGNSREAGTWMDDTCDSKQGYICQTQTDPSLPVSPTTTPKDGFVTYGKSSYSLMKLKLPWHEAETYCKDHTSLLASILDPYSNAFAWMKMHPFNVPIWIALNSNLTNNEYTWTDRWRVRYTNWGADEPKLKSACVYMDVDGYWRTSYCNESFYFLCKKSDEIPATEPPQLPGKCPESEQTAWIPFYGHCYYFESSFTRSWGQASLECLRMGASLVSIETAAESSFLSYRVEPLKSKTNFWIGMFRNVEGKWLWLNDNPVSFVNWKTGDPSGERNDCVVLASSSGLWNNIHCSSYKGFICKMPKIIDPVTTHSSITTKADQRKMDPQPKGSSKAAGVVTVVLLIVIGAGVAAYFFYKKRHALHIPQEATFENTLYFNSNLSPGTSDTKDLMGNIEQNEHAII
The assay is described as follows: immunofluorescence, DiI-labeled exosomes co-cultured with RAW264.7 cells.

Assay [2] concerns the target T1, CD206 on CD206-positive M2 macrophages (mouse) (mouse). Put plainly: immunofluorescence of tumor, spleen and lung sections of 4T1 tumor-bearing mice after i.v. injection.

B1: Modified Lamp2b protein containing the CD206-positive M2 macrophage-targeting peptide and a C-terminal 6xHis tag, displayed on HEK293 engineered exosomes (protein, mouse)
chain: CSPGAKVRCLIVNLTDSKGTCLYAEWEMNFTITYETTNQTNKTITIAVPDKATHDGSSCGDDRNSAKIMIQFGFAVSWAVNFTKEASHYSIHDIVLSYNTSDSTVFPGAVAKGVHTVKNPENFKVPLDVIFKCNSVLTYNLTPVVQKYWGIHLQAFVQNGTVSKNEQVCEEDQTPTTVAPIIHTTAPSTTTTLTPTSTPTPTPTPTPTVGNYSIRNGNTTCLLATMGLQLNITEEKVPFIFNINPATTNFTGSCQPQSAQLRLNNSQIKYLDFIFAVKNEKRFYLKEVNVYMYLANGSAFNISNKNLSFWDAPLGSSYMCNKEQVLSVSRAFQINTFNLKVQPFNVTKGQYSTAEECAADSDLNFLIPVAVGVALGFLIIAVFISYMIGRRKSRTGYQSVHHHHHH
For the molecule B1, the binding entry in assay [1] and in assay [2] was “binds” in each case.
